Taken from: PubChem BioAssay AID1259405 (NCATS, 2018)
The whole screen tested about 50,000 reagents; below is an unselected part. About 4,000 of all reagents (8%) count as active. 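Mouse siRNA library applied to hamster cells; one well for each siRNA.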 Reagents against one gene are numbered here. No sequences are given here.

- Assay: 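Knock-downs that lift recombinant protein yield in hamster ovary cells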 (primary screen)
- Cell system: Chinese hamster CHO-K1 ovary cells with stable secreted eGFP expression
- Knock-down reagent: single siRNA against mouse genes, 0.8 pmol siRNA per well (2 µl of 400 nM stock)
- Timing: 3 days
- Detection: 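Per-well intracellular GFP measured by laser scanning cytometry, plus viability from ATP luminescence, each relative to plate median of non-targeting control wells, in %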
- Direction: GFP, % of control: higher = more GFP per well, higher productivity; viability (ATP), % of control: higher = more viable cells (more ATP)
- Hit rule: 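Called active when intracellular GFP, relative to negative control, is at or above 120%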

| Gene | reagent no. | GFP, % of control | viability (ATP), % of control | Outcome |
| --- | --- | --- | --- | --- |
| Pou2f1 (POU domain, class 2, transcription factor 1) | 1 | 91.2 | 73.5 | inactive |
| Pou2f1 (POU domain, class 2, transcription factor 1) | 2 | 77.3 | 66.5 | inactive |
| Pou2f1 (POU domain, class 2, transcription factor 1) | 3 | 76.2 | 77.6 | inactive |
| Yipf7 (Yip1 domain family, member 7) | 1 | 139 | 93 | active |
| Yipf7 (Yip1 domain family, member 7) | 2 | 60.4 | 79.4 | inactive |
| Yipf7 (Yip1 domain family, member 7) | 3 | 62.9 | 93.3 | inactive |
| Prss43 (serine protease 43) | 1 | 136 | 102 | active |
| Prss43 (serine protease 43) | 2 | 82.6 | 95.6 | inactive |
| Prss43 (serine protease 43) | 3 | 79.6 | 76.6 | inactive |
| Fgf20 (fibroblast growth factor 20) | 1 | 84.5 | 71.8 | inactive |
| Fgf20 (fibroblast growth factor 20) | 2 | 40.4 | 68.2 | inactive |
| Fgf20 (fibroblast growth factor 20) | 3 | 40 | 76.3 | inactive |
| Srrt (serrate RNA effector molecule homolog (Arabidopsis)) | 1 | 76.6 | 89.7 | inactive |
| Srrt (serrate RNA effector molecule homolog (Arabidopsis)) | 2 | 65.2 | 80.7 | inactive |
| Srrt (serrate RNA effector molecule homolog (Arabidopsis)) | 3 | 88.9 | 77.9 | inactive |
| Dnah11 (dynein, axonemal, heavy chain 11) | 1 | 67.3 | 90.3 | inactive |
| Dnah11 (dynein, axonemal, heavy chain 11) | 2 | 90.5 | 92.9 | inactive |
| Or8c8 (olfactory receptor family 8 subfamily C member 8) | 1 | 51.3 | 53.5 | inactive |
| Or8c8 (olfactory receptor family 8 subfamily C member 8) | 2 | 100 | 108 | inactive |
| Or8c8 (olfactory receptor family 8 subfamily C member 8) | 3 | 77.6 | 99 | inactive |
| Actr1a (ARP1 actin-related protein 1A, centractin alpha) | 1 | 72.4 | 45 | inactive |
| Actr1a (ARP1 actin-related protein 1A, centractin alpha) | 2 | 47.7 | 64.3 | inactive |
| Lmf1 (lipase maturation factor 1) | 1 | 77.3 | 70.5 | inactive |
| Lmf1 (lipase maturation factor 1) | 2 | 143 | 97.7 | active |
| Lmf1 (lipase maturation factor 1) | 3 | 92.3 | 62.4 | inactive |
| Cavin1 (caveolae associated 1) | 1 | 59.5 | 81.8 | inactive |
| Cavin1 (caveolae associated 1) | 2 | 65.3 | 71.7 | inactive |
| Cavin1 (caveolae associated 1) | 3 | 76.8 | 76.1 | inactive |
| Mfng (MFNG O-fucosylpeptide 3-beta-N-acetylglucosaminyltransferase) | 1 | 26.9 | 23.9 | inactive |
| Mfng (MFNG O-fucosylpeptide 3-beta-N-acetylglucosaminyltransferase) | 2 | 108 | 130 | inactive |
| Mfng (MFNG O-fucosylpeptide 3-beta-N-acetylglucosaminyltransferase) | 3 | 82.1 | 144 | inactive |
| Apc2 (APC regulator of WNT signaling pathway 2) | 1 | 75.7 | 74.6 | inactive |
| Apc2 (APC regulator of WNT signaling pathway 2) | 2 | 85.3 | 85.9 | inactive |

Already shown: 2 of the entries above.
| Gene | reagent no. | GFP, % of control | viability (ATP), % of control | Outcome |
| --- | --- | --- | --- | --- |
| Cavin1 (caveolae associated 1) | 1 | 59.5 | 81.8 | inactive |
| Cavin1 (caveolae associated 1) | 2 | 65.3 | 71.7 | inactive |

Next reagents follow:
| Gene | reagent no. | GFP, % of control | viability (ATP), % of control | Outcome |
| --- | --- | --- | --- | --- |
| Pramel27 (PRAME like 27) | 1 | 93.1 | 117 | inactive |
| Pramel27 (PRAME like 27) | 2 | 90.2 | 119 | inactive |
| Pramel27 (PRAME like 27) | 3 | 73.9 | 56.7 | inactive |
| Atxn1 (ataxin 1) | 1 | 92.5 | 117 | inactive |
| Atxn1 (ataxin 1) | 2 | 69.6 | 83.9 | inactive |
| Atxn1 (ataxin 1) | 3 | 111 | 41.3 | inactive |
| Or8g55 (olfactory receptor family 8 subfamily G member 55) | 1 | 67.2 | 59.7 | inactive |
| Or8g55 (olfactory receptor family 8 subfamily G member 55) | 2 | 48.7 | 66.9 | inactive |
| Or8g55 (olfactory receptor family 8 subfamily G member 55) | 3 | 79.3 | 58.7 | inactive |
| 1700018B08Rik (RIKEN cDNA 1700018B08 gene) | 1 | 80.3 | 71.4 | inactive |
| 1700018B08Rik (RIKEN cDNA 1700018B08 gene) | 2 | 87.1 | 111 | inactive |
| 1700018B08Rik (RIKEN cDNA 1700018B08 gene) | 3 | 93.9 | 78.4 | inactive |
| Man2c1 (mannosidase, alpha, class 2C, member 1) | 1 | 103 | 108 | inactive |
| Man2c1 (mannosidase, alpha, class 2C, member 1) | 2 | 109 | 112 | inactive |
| Man2c1 (mannosidase, alpha, class 2C, member 1) | 3 | 27 | 50.2 | inactive |
| Naa50 (N(alpha)-acetyltransferase 50, NatE catalytic subunit) | 1 | 32.1 | 75 | inactive |
| Naa50 (N(alpha)-acetyltransferase 50, NatE catalytic subunit) | 2 | 86.1 | 98.4 | inactive |
| Naa50 (N(alpha)-acetyltransferase 50, NatE catalytic subunit) | 3 | 46 | 64 | inactive |
| Tmed4 (transmembrane p24 trafficking protein 4) | 1 | 133 | 95.7 | active |
| Tmed4 (transmembrane p24 trafficking protein 4) | 2 | 217 | 152 | active |
| Tmed4 (transmembrane p24 trafficking protein 4) | 3 | 72.3 | 94.7 | inactive |
| Klf16 (Kruppel-like transcription factor 16) | 1 | 60.3 | 78.2 | inactive |
| Klf16 (Kruppel-like transcription factor 16) | 2 | 91.9 | 73.8 | inactive |
| Klf16 (Kruppel-like transcription factor 16) | 3 | 95.6 | 108 | inactive |
